Laboratory results from the supplement of paper PMC5393889.
This is one part of the list.

The compounds below were run on Caenorhabditis elegans N2 (assay: aldicarb interaction hit call (worm growth perturbed in combination with 10 uM aldicarb in both replicates, no effect as single agent) (binary (1 = interacts)); higher = interacts with aldicarb (growth perturbed)). Settings: first compound 1.5 µM; aldicarb concentration 10 µM; 6 days; 20 °C.

| Compound | aldicarb interaction hit call |
| --- | --- |
| O=C(Nc1ccc(F)cc1F)N1CCN(c2ccc([N+](=O)[O-])cc2)CC1 [wact-544] + CNC(=O)O/N=C/C(C)(C)SC [aldicarb] | inactive: 0 |
| CCc1ccc2oc(-c3cccc(N)c3)nc2c1 [wact-438] + CNC(=O)O/N=C/C(C)(C)SC [aldicarb] | inactive: 0 |
| Oc1cccc2ccc(/C=C/c3cccs3)nc12 [wact-605] + CNC(=O)O/N=C/C(C)(C)SC [aldicarb] | active: 1 |
| C#CCSc1nsc(NC(=O)Nc2ccc(Cl)c(C(F)(F)F)c2)n1 [wact-343] + CNC(=O)O/N=C/C(C)(C)SC [aldicarb] | inactive: 0 |
| CN(CC1CCN(CCc2ccc(Cl)cc2)CC1)C1CCSCC1 [wact-315] + CNC(=O)O/N=C/C(C)(C)SC [aldicarb] | inactive: 0 |
| O=C(/C=C/c1ccc2c(c1)OCO2)Nc1ccc(Cl)cc1 [wact-411] + CNC(=O)O/N=C/C(C)(C)SC [aldicarb] | inactive: 0 |
| O=C(c1ccc(Cl)c(Cl)c1)N1CCN(c2ccc([N+](=O)[O-])cc2C(F)(F)F)CC1 [wact-501] + CNC(=O)O/N=C/C(C)(C)SC [aldicarb] | inactive: 0 |
| Cc1cc(I)ccc1NC(=S)NC(=O)C(C)(C)C [wact-72] + CNC(=O)O/N=C/C(C)(C)SC [aldicarb] | inactive: 0 |
| CC(C)Sc1ncnc2c1cnn2-c1ccccc1 [wact-140] + CNC(=O)O/N=C/C(C)(C)SC [aldicarb] | inactive: 0 |
| O=C(c1ccc(Cl)cc1)N1CCN(Cc2ccc(Cl)cc2)CC1 [wact-229] + CNC(=O)O/N=C/C(C)(C)SC [aldicarb] | inactive: 0 |
| Cc1oc(-c2ccc(-c3ccccc3)cc2)nc1CN(Cc1cnn(C)c1)C(C)C [wact-257] + CNC(=O)O/N=C/C(C)(C)SC [aldicarb] | inactive: 0 |
